Experimental data reported in article PMC6300487.
These are yes or no findings as the source states them, for the method shown. In cells and extracts the contact can be indirect. These calls come from enrichment with a bait or labelling near it, and not all partners need be listed. Sequences can lack the tags named with a protein.

T1: SFB-tagged WWOX (WW domain-containing oxidoreductase) (human) (UniProt Q9NZC7)
T1 sequence: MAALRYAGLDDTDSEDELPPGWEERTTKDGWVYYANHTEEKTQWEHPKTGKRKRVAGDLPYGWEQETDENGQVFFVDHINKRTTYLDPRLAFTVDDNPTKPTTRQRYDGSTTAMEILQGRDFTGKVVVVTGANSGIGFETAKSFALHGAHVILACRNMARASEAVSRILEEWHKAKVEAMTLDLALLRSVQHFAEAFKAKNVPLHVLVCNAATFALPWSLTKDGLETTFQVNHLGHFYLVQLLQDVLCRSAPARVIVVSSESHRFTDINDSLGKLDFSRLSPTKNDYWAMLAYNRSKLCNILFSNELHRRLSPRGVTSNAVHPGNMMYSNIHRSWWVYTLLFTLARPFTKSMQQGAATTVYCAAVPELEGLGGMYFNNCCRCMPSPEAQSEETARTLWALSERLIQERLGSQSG


target: T1, SFB-tagged WWOX (WW domain-containing oxidoreductase) (human); assay: affinity purification with mass spectrometry; tandem affinity purification from lysate (NETN buffer) of HEK293T cells stably expressing C-terminally SFB-tagged WWOX: streptavidin beads, elution with 2 mg/ml biotin, then S protein beads; LC-MS/MS; two replicates; hits filtered by MUSE interaction score and CRAPome frequency

binding	Binder
binds	Branched Chain Keto Acid Dehydrogenase E1, Alpha Polypeptide (protein, UniProt P12694 46-445) SSLDDKPQFPGASAEFIDKLEFIQPNVISGIPIYRVMDRQGQIINPSEDPHLPKEKVLKLYKSMTLLNTMDRILYESQRQGRISFYMTNYGEEGTHVGSAAALDNTDLVFGQYREAGVLMYRDYPLELFMAQCYGNISDLGKGRQMPVHYGCKERHFVTISSPLATQIPQAVGAAYAAKRANANRVVICYFGEGAASEGDAHAGFNFAATLECPIIFFCRNNGYAISTPTSEQYRGDGIAARGPGYGIMSIRVDGNDVFAVYNATKEARRRAVAENQPFLIEAMTYRIGHHSTSDDSSAYRSVDEVNYWDKQDHPISRLRHYLLSQGWWDEEQEKAWRKQSRRKVMEAFEQAERKPKPNPNLLFSDVYQEMPAQLRKQQESLARHLQTYGEHYPLDHFDK
binds	Regulator of non-sense transcripts 1 (protein, UniProt Q92900 1-1129) MSVEAYGPSSQTLTFLDTEEAELLGADTQGSEFEFTDFTLPSQTQTPPGGPGGPGGGGAGGPGGAGAGAAAGQLDAQVGPEGILQNGAVDDSVAKTSQLLAELNFEEDEEDTYYTKDLPIHACSYCGIHDPACVVYCNTSKKWFCNGRGNTSGSHIVNHLVRAKCKEVTLHKDGPLGETVLECYNCGCRNVFLLGFIPAKADSVVVLLCRQPCASQSSLKDINWDSSQWQPLIQDRCFLSWLVKIPSEQEQLRARQITAQQINKLEELWKENPSATLEDLEKPGVDEEPQHVLLRYEDAYQYQNIFGPLVKLEADYDKKLKESQTQDNITVRWDLGLNKKRIAYFTLPKTDSGNEDLVIIWLRDMRLMQGDEICLRYKGDLAPLWKGIGHVIKVPDNYGDEIAIELRSSVGAPVEVTHNFQVDFVWKSTSFDRMQSALKTFAVDETSVSGYIYHKLLGHEVEDVIIKCQLPKRFTAQGLPDLNHSQVYAVKTVLQRPLSLIQGPPGTGKTVTSATIVYHLARQGNGPVLVCAPSNIAVDQLTEKIHQTGLKVVRLCAKSREAIDSPVSFLALHNQIRNMDSMPELQKLQQLKDETGELSSADEKRYRALKRTAERELLMNADVICCTCVGAGDPRLAKMQFRSILIDESTQATEPECMVPVVLGAKQLILVGDHCQLGPVVMCKKAAKAGLSQSLFERLVVLGIRPIRLQVQYRMHPALSAFPSNIFYEGSLQNGVTAADRVKKGFDFQWPQPDKPMFFYVTQGQEEIASSGTSYLNRTEAANVEKITTKLLKAGAKPDQIGIITPYEGQRSYLVQYMQFSGSLHTKLYQEVEIASVDAFQGREKDFIILSCVRANEHQGIGFLNDPRRLNVALTRARYGVIIVGNPKALSKQPLWNHLLNYYKEQKVLVEGPLNNLRESLMQFSKPRKLVNTINPGARFMTTAMYDAREAIIPGSVYDRSSQGRPSSMYFQTHDQIGMISAGPSHVAAMNIPIPFNLVMPPMPPPGYFGQANGPAAGRGTPKGKTGRGGRQKNRFGLPGPSQTNLPNSQASQDVASQPFSQGALTQGYISMSQPSQMSQPGLSQPELSQDSYLGDEFKSQIDVALSQDSTYQGERAYQHGGVTGLSQY
binds	Ataxin 10 (protein, UniProt Q9UBB4 1-475) MAAPRPPPARLSGVMVPAPIQDLEALRALTALFKEQRNRETAPRTIFQRVLDILKKSSHAVELACRDPSQVENLASSLQLITECFRCLRNACIECSVNQNSIRNLDTIGVAVDLILLFRELRVEQESLLTAFRCGLQFLGNIASRNEDSQSIVWVHAFPELFLSCLNHPDKKIVAYSSMILFTSLNHERMKELEENLNIAIDVIDAYQKHPESEWPFLIITDLFLKSPELVQAMFPKLNNQERVTLLDLMIAKITSDEPLTKDDIPVFLRHAELIASTFVDQCKTVLKLASEEPPDDEEALATIRLLDVLCEMTVNTELLGYLQVFPGLLERVIDLLRVIHVAGKETTNIFSNCGCVRAEGDISNVANGFKSHLIRLIGNLCYKNKDNQDKVNELDGIPLILDNCNISDSNPFLTQWVIYAIRNLTEDNSQNQDLIAKMEEQGLADASLLKKVGFEVEKKGEKLILKSTRDTPKP
binds	Dehydrogenase/reductase SDR family member 13 (protein, UniProt Q6UX07 26-377) PPCGGMGNLRGRTAVVTGANSGIGKMTALELARRGARVVLACRSQERGEAAAFDLRQESGNNEVIFMALDLASLASVRAFATAFLSSEPRLDILIHNAGISSCGRTREAFNLLLRVNHIGPFLLTHLLLPCLKACAPSRVVVVASAAHCRGRLDFKRLDRPVVGWRQELRAYADTKLANVLFARELANQLEATGVTCYAAHPGPVNSELFLRHVPGWLRPLLRPLAWLVLRAPRGGAQTPLYCALQEGIEPLSGRYFANCHVEEVPPAARDDRAAHRLWEASKRLAGLGPGEDAEPDEDPQSEDSEAPSSLSTPHPEEPTVSQPYPSPQSSPDLSKMTHRIQAKVEPEIQLS
binds	Ribosomal RNA-Processing Protein 44 (protein, UniProt Q9Y2L1 1-958) MLKSKTFLKKTRAGGVMKIVREHYLRDDIGCGAPGCAACGGAHEGPALEPQPQDPASSVCPQPHYLLPDTNVLLHQIDVLEDPAIRNVIVLQTVLQEVRNRSAPVYKRIRDVTNNQEKHFYTFTNEHHRETYVEQEQGENANDRNDRAIRVAAKWYNEHLKKMSADNQLQVIFITNDRRNKEKAIEEGIPAFTCEEYVKSLTANPELIDRLACLSEEGNEIESGKIIFSEHLPLSKLQQGIKSGTYLQGTFRASRENYLEATVWIHGDNEENKEIILQGLKHLNRAVHEDIVAVELLPKSQWVAPSSVVLHDEGQNEEDVEKEEETERMLKTAVSEKMLKPTGRVVGIIKRNWRPYCGMLSKSDIKESRRHLFTPADKRIPRIRIETRQASTLEGRRIIVAIDGWPRNSRYPNGHFVRNLGDVGEKETETEVLLLEHDVPHQPFSQAVLSFLPKMPWSITEKDMKNREDLRHLCICSVDPPGCTDIDDALHCRELENGNLEVGVHIADVSHFIRPGNALDQESARRGTTVYLCEKRIDMVPELLSSNLCSLKCDVDRLAFSCIWEMNHNAEILKTKFTKSVINSKASLTYAEAQLRIDSANMNDDITTSLRGLNKLAKILKKRRIEKGALTLSSPEVRFHMDSETHDPIDLQTKELRETNSMVEEFMLLANISVAKKIHEEFSEHALLRKHPAPPPSNYEILVKAARSRNLEIKTDTAKSLAESLDQAESPTFPYLNTLLRILATRCMMQAVYFCSGMDNDFHHYGLASPIYTHFTSPIRRYADVIVHRLLAVAIGADCTYPELTDKHKLADICKNLNFRHKMAQYAQRASVAFHTQLFFKSKGIVSEEAYILFVRKNAIVVLIPKYGLEGTVFFEEKDKPNPQLIYDDEIPSLKIEDTVFHVFDKVKVKIMLDSSNLQHQKIRMSLVEPQIPGISIPTDTSNMDLNGPKKKKMKLGK
binds	Asparagine synthetase (protein, UniProt P08243 1-561) MCGIWALFGSDDCLSVQCLSAMKIAHRGPDAFRFENVNGYTNCCFGFHRLAVVDPLFGMQPIRVKKYPYLWLCYNGEIYNHKKMQQHFEFEYQTKVDGEIILHLYDKGGIEQTICMLDGVFAFVLLDTANKKVFLGRDTYGVRPLFKAMTEDGFLAVCSEAKGLVTLKHSATPFLKVEPFLPGHYEVLDLKPNGKVASVEMVKYHHCRDVPLHALYDNVEKLFPGFEIETVKNNLRILFNNAVKKRLMTDRRIGCLLSGGLDSSLVAATLLKQLKEAQVQYPLQTFAIGMEDSPDLLAARKVADHIGSEHYEVLFNSEEGIQALDEVIFSLETYDITTVRASVGMYLISKYIRKNTDSVVIFSGEGSDELTQGYIYFHKAPSPEKAEEESERLLRELYLFDVLRADRTTAAHGLELRVPFLDHRFSSYYLSLPPEMRIPKNGIEKHLLRETFEDSNLIPKEILWRPKEAFSDGITSVKNSWFKILQEYVEHQVDDAMMANAAQKFPFNTPKTKEGYYYRQVFERHYPGRADWLSHYWMPKWINATDPSARTLTHYKSAVKA
binds	RNA Binding Motif Protein 22 (protein, UniProt Q9NW64 1-420) MATSLGSNTYNRQNWEDADFPILCQTCLGENPYIRMTKEKYGKECKICARPFTVFRWCPGVRMRFKKTEVCQTCSKLKNVCQTCLLDLEYGLPIQVRDAGLSFKDDMPKSDVNKEYYTQNMEREISNSDGTRPVGMLGKATSTSDMLLKLARTTPYYKRNRPHICSFWVKGECKRGEECPYRHEKPTDPDDPLADQNIKDRYYGINDPVADKLLKRASTMPRLDPPEDKTITTLYVGGLGDTITETDLRNHFYQFGEIRTITVVQRQQCAFIQFATRQAAEVAAEKSFNKLIVNGRRLNVKWGRSQAARGKEKEKDGTTDSGIKLEPVPGLPGALPPPPAAEEEASANYFNLPPSGPPAVVNIALPPPPGIAPPPPPGFGPHMFHPMGPPPPFMRAPGPIHYPSQDPQRMGAHAGKHSSP
binds	Leucine Rich Repeat and Coiled-Coil Centrosomal Protein 1 (protein, UniProt Q9C099 1-1032) MEAAAAVVAAEAEVENEDGDSSCGDVCFMDKGLQSISELSLDSTLHAVNLHCNNISKIEAIDHIWNLQHLDLSSNQISRIEGLNTLTKLCTLNLSCNLITKVEGLEELINLTRLNVSYNHIDDLSGLIPLHGIKHKLRYIDLHSNRIDSIHHLLQCMVGLHFLTNLILEKDGDDNPVCRLPGYRAVILQTLPQLRILDCKNIFGEPVNLTEINSSQLQCLEGLLDNLVSSDSPLNISEDEIIDRMPVITAPIDELVPLEQFASTPSDAVLTSFMSVCQSSEPEKNNHENDLQNEIKLQKLDDQILQLLNETSNSIDNVLEKDPRPKRDTDITSESDYGNRKECNRKVPRRSKIPYDAKTIQTIKHHNKNYNSFVSCNRKMKPPYLKELYVSSSLANCPMLQESEKPKTEIIKVDQSHSEDNTYQSLVEQLDQEREKRWRAEQAENKLMDYIDELHKHANEKEDIHSLALLTTDRLKEIIFRERNSKGQLEVMVHKLQNEIKKLTVELMKAKDQQEDHLKHLRTLEKTLEKMERQKRQQQAAQIRLIQEVELKASAADREIYLLRTSLHREREQAQQLHQLLALKEQEHRKELETREFFTDADFQDALAKEIAKEEKKHEQMIKEYQEKIDVLSQQYMDLENEFRIALTVEARRFQDVKDGFENVATELAKSKHALIWAQRKENESSSLIKDLTCMVKEQKTKLAEVSKLKQETAANLQNQINTLEILIEDDKQKSIQIELLKHEKVQLISELAAKESLIFGLRTERKVWGHELAQQGSSLAQNRGKLEAQIESLSRENECLRKTNESDSDALRIKCKIIDDQTETIRKLKDCLQEKDEHIKRLQEKITEIEKCTQEQLDEKSSQLDEVLEKLERHNERKEKLKQQLKGKEVELEEIRKAYSTLNRKWHDKGELLCHLETQVKEVKEKFENKEKKLKAERDKSIELQKNAMEKLHSMDDAFKRQVDAIVEAHQAEIAQLANEKQKCIDSANLKVHQIEKEMRELLEETCKNKKTMEAKIKQLAFALNEIQQDM
